# From US20140235578A1, “METHODS FOR TREATING NEOPLASIA AND FOR IDENTIFYING COMPOSITIONS USEFUL IN SUCH THERAPY” (priority 2007, published 2014)
# Some of these results come from one statement about several compounds together. Where a SMILES comes first, the peptide text is derived from it. The star is where a group is joined. Cbz = O=C(OCc1ccccc1)*
# System: H9C2 cardiomyocytes
# Assay: γ-H2AX DNA damage signal by Western blotting
# Type: cell-based
# Conditions: bortezomib 1 μM or MG132 4 μM, added 30 min prior
# Protocol: Cell lysates were analyzed by Western blotting using anti-γ-H2AX or anti-α-tubulin antibody (for assessing protein loading). […] Cells were then lysed and analyzed by Western blotting using anti-γ-H2AX or anti-α-tubulin antibody. […] Cells were then lysed and analyzed by Western blotting using anti-γ-H2AX or anti-α-tubulin antibody.
# Vitamin C and NAC were added 30 min prior to doxorubicin. Cell lysates were then analyzed by Western blotting using anti-γ-H2AX or anti-α-tubulin antibody. […] Cell lysates were then analyzed by Western blotting (upper panel) using anti-γ-H2AX or anti-α-tubulin antibody. Quantification of γ-H2AX signals is shown in the lower panel. C, H9C2 cells were treated with 0.1% DMSO (labeled DMSO), bortezomib (1 μM) or MG132 (4 μM) for 30 min, followed by co-treatment with either 0.1% DMSO (labeled control) or 0.5 μM doxorubicin (labeled Doxo) for 1.5 hrs. Neutral comet assay was then performed as described in Materials and Methods. The average comet tail moments were plotted as histograms (mean±SEM). *p-value<0.001, t-test.
smiles,measurement,value
"CC(C)C[C@@H](C=O)NC(=O)[C@H](CC(C)C)NC(=O)[C@H](CC(C)C)NC(=O)OCc1ccccc1 [MG132, N-[(Phenylmethoxy)carbonyl]-L-leucyl-N-[(1S)-1-formyl-3-methylbutyl]-L-leucinamide] (Cbz-Leu-Leu-Leu-aldehyde)",reduction of the γ-H2AX signal induced by doxorubicin and VP-16,more than 50%
